Data: article PMC9226670
No constants are given. Whether binding was seen depends on the method and setting. Binding seen in cells or lysates may run through a third protein. Binding can be weak; no strength is given.

Amino acid sequences for entries named in this document (tags omitted).
UniProt Q9CPX6: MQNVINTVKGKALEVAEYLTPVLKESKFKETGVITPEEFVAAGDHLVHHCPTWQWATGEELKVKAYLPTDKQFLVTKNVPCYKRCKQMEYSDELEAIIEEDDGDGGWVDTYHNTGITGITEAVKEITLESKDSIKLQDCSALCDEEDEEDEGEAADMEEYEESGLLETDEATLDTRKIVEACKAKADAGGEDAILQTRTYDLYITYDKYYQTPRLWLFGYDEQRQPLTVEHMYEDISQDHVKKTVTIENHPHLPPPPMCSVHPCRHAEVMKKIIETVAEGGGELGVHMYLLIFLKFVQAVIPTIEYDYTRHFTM
UniProt Q99J83: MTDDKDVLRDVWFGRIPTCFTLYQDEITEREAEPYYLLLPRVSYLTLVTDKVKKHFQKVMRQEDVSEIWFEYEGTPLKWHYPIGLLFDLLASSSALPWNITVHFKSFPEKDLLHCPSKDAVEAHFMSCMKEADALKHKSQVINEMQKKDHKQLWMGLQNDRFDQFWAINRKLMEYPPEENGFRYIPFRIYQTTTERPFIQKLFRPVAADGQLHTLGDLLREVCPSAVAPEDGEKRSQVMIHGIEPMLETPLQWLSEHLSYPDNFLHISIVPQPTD

Legend:
[1] = target: Atg3 (endogenous, mouse macrophage RAW264.7) (mouse (endogenous in RAW264.7)) (UniProt Q9CPX6); test: co-IP; RAW264.7 cells infected with ME49wt or ME49Δcdpk3 parasites (MOI 3), 4 h after infection; polyclonal anti-Atg3, anti-Atg5 or anti-Atg7 antibodies precipitate the host protein; blot with rabbit polyclonal CDPK3 antibody; lysis buffer 50 mM HEPES pH 7.4, 150 mM NaCl, 2 mM EGTA, 1% Triton X-100
[2] = target: Atg5 (endogenous, mouse macrophage RAW264.7) (mouse (endogenous in RAW264.7)) (UniProt Q99J83); test: as above

“CDPK3 from the ME49wt parasite (endogenous Toxoplasma gondii CDPK3) (from UniProt A0A125YQG4) (enzyme)” was tested, and the binding [1] was “binds” and the binding [2] was “binds”.
